Measured values taken from PMC8310061.
These are yes or no findings as the source states them, for the method shown. Binding seen in cells or lysates may run through a third protein. Binding calls can cover weak binding; strength is not graded here.

Target: His-tagged scaffold Δ49ApoA1
Assay: pull-down; MOMP and His-tagged Δ49ApoA1 co-translated in an E. coli cell-free reaction with DMPC and telodendrimer PEG5k-CA8, 30 °C, 14-18 h; complex purified on nickel resin by the His tag of Δ49ApoA1; SDS-PAGE and dot blot with mAb40 and Penta-His

B1: Chlamydia muridarum major outer membrane protein (MOMP) (protein, UniProt P75024 1-387)
chain: MKKLLKSVLAFAVLGSASSLHALPVGNPAEPSLMIDGILWEGFGGDPCDPCTTWCDAISLRLGYYGDFVFDRVLKTDVNKQFEMGAAPTGDADLTTAPTPASRENPAYGKHMQDAEMFTNAAYMALNIWDRFDVFCTLGATSGYLKGNSAAFNLVGLFGRDETAVAADDIPNVSLSQAVVELYTDTAFAWSVGARAALWECGCATLGASFQYAQSKPKVEELNVLCNAAEFTINKPKGYVGQEFPLNIKAGTVSATDTKDASIDYHEWQASLALSYRLNMFTPYIGVKWSRASFDADTIRIAQPKLETSILKMTTWNPTISGSGIDVDTKITDTLQIVSLQLNKMKSRKSCGLAIGTTIVDADKYAVTVETRLIDERAAHVNAQFRF
Q: B1 was tested. Which binding did it give?
A: binds
